# Measured values published in the supplement of paper PMC8728848.
# Some of the results follow.
# B1: AT5G24760(45) (Arabidopsis thaliana), Q8LEB2 (protein)
# chain: MSASSSSFEQPQVITCNAAVAWRAGEPLVMEEVEVSPPQPLEIRIKVVCTSLCRSDLSAWESQSLLPRIFGHEAAGIVESIGEGVTEFEKGDHVLAVFTGECGSCRHCISGKSNMCQVLGMERKGLMHSDQKTRFSIKGKPVYHYCAVSSFSEYTVVHSGCAVKVDPLAPLHKICLLSCGVAAGLGAAWNVADVQKGSSVVIFGLGTVGLSVAQGAKLRGAAQILGVDINPAKAEQAKTFGVTDFINSNDLSEPIPQVIKRMTGGGADFSFECVGDTGIATTALQSCSDGWGMTVTLGVPKAKPEVSAHYGLFLSGKSLKGTLFGGWKPKSDLPSLIDKYMNKEIMIDEFITHNLSFDEINKAFVLMREGKCLRCVLHMPK
# Tests used:
# Assay in all cases: glycan array binding signal (z-score within array); higher = stronger binding
# Conditions in all cases: glycan notation: IUPAC condensed, linker removed
# Gal(a1-3)Gal(b1-4)GlcNAc = biological target: Gal(a1-3)Gal(b1-4)GlcNAc
# How it was run: (§1)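 The binding signal is a Z-score computed within each array and averaged over linkers. Arrays of the same protein sequence at different concentrations or buffers were also averaged together. Data originate from 3228 arrays in the Consortium for Functional Glycomics database, kept only where the protein sequence was available.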
# [1] = biological target: Gal(a1-3)Gal(b1-4)GlcNAc(b1-2)Man
# How it was run: as §1
# [2] = biological target: Gal(a1-3)Gal(b1-4)GlcNAc(b1-2)Man(a1-3)[Gal(a1-3)Gal(b1-4)GlcNAc(b1-2)Man(a1-6)]Man(b1-4)GlcNAc(b1-4)GlcNAc
# How it was run: as §1
# [3] = biological target: Gal(a1-3)Gal(b1-4)GlcNAc(b1-3)GalNAc
# How it was run: as §1
# [4] = biological target: Gal(a1-3)Gal(b1-4)GlcNAc(b1-6)GalNAc
# How it was run: as §1
# [5] = biological target: Gal(a1-3)Gal(b1-4)[Fuc(a1-3)]GlcNAc
# How it was run: as §1
# [6] = biological target: Gal(a1-3)Gal(b1-4)[Fuc(a1-3)]GlcNAc(b1-2)Man(a1-3)[Gal(a1-3)Gal(b1-4)[Fuc(a1-3)]GlcNAc(b1-2)Man(a1-6)]Man(b1-4)GlcNAc(b1-4)GlcNAc
# How it was run: as §1
# Gal(a1-3)GalNAc = biological target: Gal(a1-3)GalNAc
# How it was run: as §1
# [7] = biological target: Gal(a1-3)[Gal(a1-4)]Gal(b1-4)GlcNAc
# How it was run: as §1
# [8] = biological target: Gal(a1-4)Gal(b1-3)GlcNAc(b1-2)Man(a1-3)[Gal(a1-4)Gal(b1-3)GlcNAc(b1-2)Man(a1-6)]Man(b1-4)GlcNAc(b1-4)GlcNAc
# How it was run: as §1
# Gal(a1-4)Gal(b1-4)Glc = biological target: Gal(a1-4)Gal(b1-4)Glc
# How it was run: as §1
# Gal(a1-4)Gal(b1-4)GlcNAc = biological target: Gal(a1-4)Gal(b1-4)GlcNAc
# How it was run: as §1
# [9] = biological target: Gal(a1-4)Gal(b1-4)GlcNAc(b1-2)Man(a1-3)[Gal(a1-4)Gal(b1-4)GlcNAc(b1-2)Man(a1-6)]Man(b1-4)GlcNAc(b1-4)GlcNAc
# How it was run: as §1
# [10] = biological target: Gal(a1-4)Gal(b1-4)GlcNAc(b1-3)Gal(b1-4)Glc
# How it was run: as §1
# Gal(a1-4)GlcNAc = biological target: Gal(a1-4)GlcNAc
# How it was run: as §1
# Gal(a1-6)Glc = biological target: Gal(a1-6)Glc
# How it was run: as §1
# Gal(b1-2)Gal = biological target: Gal(b1-2)Gal
# How it was run: as §1
# Gal(b1-3)Gal = biological target: Gal(b1-3)Gal
# How it was run: as §1
# Gal(b1-3)Gal(b1-4)GlcNAc = biological target: Gal(b1-3)Gal(b1-4)GlcNAc
# How it was run: as §1
# Gal(b1-3)GalNAc = biological target: Gal(b1-3)GalNAc
# How it was run: as §1
# [11] = biological target: Gal(b1-3)GalNAc(a1-3)[Fuc(a1-2)]Gal(b1-4)Glc
# How it was run: as §1
# [12] = biological target: Gal(b1-3)GalNAc(a1-3)[Fuc(a1-2)]Gal(b1-4)GlcNAc
# How it was run: as §1
# Gal(b1-3)GalNAc(b1-3)Gal = biological target: Gal(b1-3)GalNAc(b1-3)Gal
# How it was run: as §1
# [13] = biological target: Gal(b1-3)GalNAc(b1-3)Gal(a1-4)Gal(b1-4)Glc
# How it was run: as §1
# [14] = biological target: Gal(b1-3)GalNAc(b1-4)Gal(b1-4)Glc
# How it was run: as §1
# [15] = biological target: Gal(b1-3)GalNAc(b1-4)[Neu5Ac(a2-3)]Gal(b1-4)Glc
# How it was run: as §1
# Gal(b1-3)GlcNAc = biological target: Gal(b1-3)GlcNAc
# How it was run: as §1
# [16] = biological target: Gal(b1-3)GlcNAc(a1-3)Gal(b1-4)GlcNAc
# How it was run: as §1
# [17] = biological target: Gal(b1-3)GlcNAc(a1-6)Gal(b1-4)GlcNAc
# How it was run: as §1
# Gal(b1-3)GlcNAc(b1-2)Man = biological target: Gal(b1-3)GlcNAc(b1-2)Man
# How it was run: as §1
# [18] = biological target: Gal(b1-3)GlcNAc(b1-2)Man(a1-3)[Gal(b1-3)GlcNAc(b1-2)Man(a1-6)]Man(b1-4)GlcNAc(b1-4)GlcNAc
# How it was run: as §1
# [19] = biological target: Gal(b1-3)GlcNAc(b1-2)Man(a1-3)[Gal(b1-3)GlcNAc(b1-2)Man(a1-6)]Man(b1-4)GlcNAc(b1-4)[Fuc(a1-6)]GlcNAc
# How it was run: as §1
# [20] = biological target: Gal(b1-3)GlcNAc(b1-2)Man(a1-3)[GlcNAc(b1-4)][Gal(b1-3)GlcNAc(b1-2)Man(a1-6)]Man(b1-4)GlcNAc(b1-4)GlcNAc
# How it was run: as §1
# [21] = biological target: Gal(b1-3)GlcNAc(b1-2)[Gal(b1-3)GlcNAc(b1-6)]Man(a1-6)[Gal(b1-3)GlcNAc(b1-2)Man(a1-3)]Man(b1-4)GlcNAc(b1-4)GlcNAc
# How it was run: as §1
# [22] = biological target: Gal(b1-3)GlcNAc(b1-3)Gal(b1-3)GlcNAc
# How it was run: as §1
# [23] = biological target: Gal(b1-3)GlcNAc(b1-3)Gal(b1-4)Glc
# How it was run: as §1
# [24] = biological target: Gal(b1-3)GlcNAc(b1-3)Gal(b1-4)GlcNAc
# How it was run: as §1
# [25] = biological target: Gal(b1-3)GlcNAc(b1-3)Gal(b1-4)GlcNAc(b1-2)Man(a1-3)[Gal(b1-3)GlcNAc(b1-3)Gal(b1-4)GlcNAc(b1-2)Man(a1-6)]Man(b1-4)GlcNAc(b1-4)GlcNAc
# How it was run: as §1
# [26] = biological target: Gal(b1-3)GlcNAc(b1-3)Gal(b1-4)GlcNAc(b1-2)[Gal(b1-3)GlcNAc(b1-3)Gal(b1-4)GlcNAc(b1-6)]Man(a1-6)[Gal(b1-3)GlcNAc(b1-3)Gal(b1-4)GlcNAc(b1-2)Man(a1-3)]Man(b1-4)GlcNAc(b1-4)[Fuc(a1-6)]GlcNAc
# How it was run: as §1
# [27] = biological target: Gal(b1-3)GlcNAc(b1-3)Gal(b1-4)GlcNAc(b1-3)Gal(b1-4)GlcNAc(b1-2)[Gal(b1-3)GlcNAc(b1-3)Gal(b1-4)GlcNAc(b1-3)Gal(b1-4)GlcNAc(b1-6)]Man(a1-6)[Gal(b1-3)GlcNAc(b1-3)Gal(b1-4)GlcNAc(b1-3)Gal(b1-4)GlcNAc(b1-2)Man(a1-3)]Man(b1-4)GlcNAc(b1-4)[Fuc(a1-6)]GlcNAc
# How it was run: as §1
# [28] = biological target: Gal(b1-3)GlcNAc(b1-3)Gal(b1-4)GlcNAc(b1-6)[Gal(b1-3)GlcNAc(b1-3)]Gal(b1-4)Glc
# How it was run: as §1
# [29] = biological target: Gal(b1-3)GlcNAc(b1-3)Gal(b1-4)[Fuc(a1-3)]GlcNAc
# How it was run: as §1
# [30] = biological target: Gal(b1-3)GlcNAc(b1-3)Gal(b1-4)[Fuc(a1-3)]GlcNAc(b1-6)[Gal(b1-3)GlcNAc(b1-3)]Gal(b1-4)Glc
# How it was run: as §1
# [31] = biological target: Gal(b1-3)GlcNAc(b1-3)GalNAc
# How it was run: as §1
# [32] = biological target: Gal(b1-3)GlcNAc(b1-6)Gal(b1-4)GlcNAc
# How it was run: as §1
binder,measurement,setting,value
B1,glycan array binding signal (z-score),Gal(a1-3)Gal(b1-4)GlcNAc,-0.393
same,glycan array binding signal (z-score),[1],0.617
same,glycan array binding signal (z-score),[2],0.041
same,glycan array binding signal (z-score),[3],-0.254
same,glycan array binding signal (z-score),[4],-0.426
same,glycan array binding signal (z-score),[5],-0.432
same,glycan array binding signal (z-score),[6],-0.89
same,glycan array binding signal (z-score),Gal(a1-3)GalNAc,0.963
same,glycan array binding signal (z-score),[7],6.01
same,glycan array binding signal (z-score),[8],-0.036
same,glycan array binding signal (z-score),Gal(a1-4)Gal(b1-4)Glc,1.07
same,glycan array binding signal (z-score),Gal(a1-4)Gal(b1-4)GlcNAc,1.04
same,glycan array binding signal (z-score),[9],-0.343
same,glycan array binding signal (z-score),[10],0.068
same,glycan array binding signal (z-score),Gal(a1-4)GlcNAc,0.133
same,glycan array binding signal (z-score),Gal(a1-6)Glc,-0.541
same,glycan array binding signal (z-score),Gal(b1-2)Gal,0.51
same,glycan array binding signal (z-score),Gal(b1-3)Gal,0.698
same,glycan array binding signal (z-score),Gal(b1-3)Gal(b1-4)GlcNAc,-0.084
same,glycan array binding signal (z-score),Gal(b1-3)GalNAc,0.106
same,glycan array binding signal (z-score),[11],-1.06
same,glycan array binding signal (z-score),[12],0.074
same,glycan array binding signal (z-score),Gal(b1-3)GalNAc(b1-3)Gal,-0.299
same,glycan array binding signal (z-score),[13],0.397
same,glycan array binding signal (z-score),[14],1.59
same,glycan array binding signal (z-score),[15],-0.742
same,glycan array binding signal (z-score),Gal(b1-3)GlcNAc,0.243
same,glycan array binding signal (z-score),[16],0.352
same,glycan array binding signal (z-score),[17],0.794
same,glycan array binding signal (z-score),Gal(b1-3)GlcNAc(b1-2)Man,0.518
same,glycan array binding signal (z-score),[18],-0.275
same,glycan array binding signal (z-score),[19],0.374
same,glycan array binding signal (z-score),[20],1.06
same,glycan array binding signal (z-score),[21],-0.113
same,glycan array binding signal (z-score),[22],0.451
same,glycan array binding signal (z-score),[23],-0.198
same,glycan array binding signal (z-score),[24],-0.138
same,glycan array binding signal (z-score),[25],-0.597
same,glycan array binding signal (z-score),[26],-0.534
same,glycan array binding signal (z-score),[27],0.084
same,glycan array binding signal (z-score),[28],-0.344
same,glycan array binding signal (z-score),[29],-0.066
same,glycan array binding signal (z-score),[30],-0.862
same,glycan array binding signal (z-score),[31],0.093
same,glycan array binding signal (z-score),[32],0.232

# Quoted from the entries so far for reference:
binder,measurement,setting,value
B1,glycan array binding signal (z-score),Gal(a1-4)GlcNAc,0.133
same,glycan array binding signal (z-score),Gal(a1-6)Glc,-0.541
same,glycan array binding signal (z-score),Gal(b1-2)Gal,0.51
